Data taken from paper PMC3173395, “Characterization of the latent membrane protein 1 signaling complex of Epstein-Barr virus in the membrane of mammalian cells with bimolecular fluorescence complementation” (Virology Journal, 2011).
No constants are given. Whether binding was seen depends on the method and setting. Binding seen in cells or lysates may run through a third protein. Some entries that bind do so weakly or less than the wild type. For some assays here: Sequences can lack the tags named with a protein.

Tests used:
[1] = target: LMP1-NYFP (full-length latent membrane protein 1 fused to NYFP at the C-terminus of LMP1) (Epstein-Barr virus, B95-8 strain) (UniProt P03230); test: split reporter; BiFC (Venus YFP fragments) in HEK-293T cells co-transfected with both plasmids and pmCherry; fixed 24 hours post-transfection; fluorescence and confocal microscopy
[2] = target: NYFP-CTAR1/2 (amino-terminus of YFP fused to the cytoplasmic domain of LMP1, amino acids 184-386) (Epstein-Barr virus, B95-8 strain) (UniProt P03230); test: as above
[3] = target: 1-231-NYFP (LMP1 amino acids 1 through 231, deleted for CTAR2, NYFP at the C-terminus) (Epstein-Barr virus, B95-8 strain) (UniProt P03230); test: split reporter; BiFC in HEK-293T cells co-transfected with pmCherry; 48 hours post-transfection; flow cytometry, mean fluorescent intensity of YFP of 1 x 10^4 mCherry positive cells (Figure 2A)
[4] = target: LMP1-NYFP (full-length latent membrane protein 1 fused to NYFP at the C-terminus of LMP1) (Epstein-Barr virus, B95-8 strain) (UniProt P03230); test: as above
[5] = target: 1-231-NYFP (LMP1 amino acids 1 through 231, deleted for CTAR2, NYFP at the C-terminus) (Epstein-Barr virus, B95-8 strain) (UniProt P03230); test: split reporter; BiFC in HEK-293T cells with the same amount of mCherry tracer plasmid but ten-fold less BiFC plasmids; flow cytometry, YFP histograms of 1 x 10^4 mCherry positive cells (Figures 3 and 5A)
[6] = target: LMP1-NYFP (full-length latent membrane protein 1 fused to NYFP at the C-terminus of LMP1) (Epstein-Barr virus, B95-8 strain) (UniProt P03230); test: as above
[7] = target: LMP1-NYFP (full-length latent membrane protein 1 fused to NYFP at the C-terminus of LMP1) (Epstein-Barr virus, B95-8 strain) (UniProt P03230); test: split reporter; BiFC by flow cytometry of the HEK-293T cells of the NF-kB reporter assay (co-transfected with pRL-SV40 and pNF-kB-Luc), Figure 5D
[8] = target: 1-231-NYFP (LMP1 amino acids 1 through 231, deleted for CTAR2, NYFP at the C-terminus) (Epstein-Barr virus, B95-8 strain) (UniProt P03230); test: split reporter; BiFC in HEK-293T cells with the same amount of mCherry tracer plasmid but ten-fold less BiFC plasmids; flow cytometry, YFP histograms of 1 x 10^4 mCherry positive cells (Figures 3 and 5A); remark: listed apart in the source
[9] = target: LMP1-NYFP (full-length latent membrane protein 1 fused to NYFP at the C-terminus of LMP1) (Epstein-Barr virus, B95-8 strain) (UniProt P03230); test: as above; remark: listed apart in the source
[10] = target: NYFP-CTAR1/2 (amino-terminus of YFP fused to the cytoplasmic domain of LMP1, amino acids 184-386) (Epstein-Barr virus, B95-8 strain) (UniProt P03230); test: split reporter; data not shown: BiFC by fluorescence microscopy in HEK-293T cells, NYFP-CTAR1/2 with TRAFs tagged at their carboxyl-termini

Measured: binding

CYFP-TRAF2 (CYFP fused to the amino-terminus of TRAF2, amino acids 98-501) (from UniProt Q12933-1 98-501) (domain or fragment)
binds: [1] | [2] | [3] | [4] | [5] | [6]

LMP1-NYFP (full-length latent membrane protein 1 fused to NYFP at the C-terminus of LMP1) (from UniProt P03230 1-386)
binds: [7] | [1] | [6]

B1: CYFP-TRAF3 (CYFP fused to the amino-terminus of TRAF3, amino acids 345-568) (domain or fragment, UniProt Q13114-1 345-568)
chain: EEADSMKSSVESLQNRVTELESVDKSAGQVARNTGLLESQLSRHDQMLSVHDIRLADMDLRFQVLETASYNGVLIWKIRDYKRRKQEAVMGKTLSLYSQPFYTGYFGYKMCARVYLNGDGMGKGTHLSLFFVIMRGEYDALLPWPFKQKVTLMLMDQGSSRRHLGDAFKPDPNSSSFKKPTGEMNIASGCPVFVAQTVLENGTYIKDDTIFIKVIVDTSDLPDP
binds: [1] | [2] | [3] | [4] | [8] | [9]

B2: CYFP-TRAF2 (CYFP fused to the amino-terminus of TRAF2, amino acids 98-501) (domain or fragment)
chain: REVESLPAVCPSDGCTWKGTLKEYESCHEGRCPLMLTECPACKGLVRLGEKERHLEHECPERSLSCRHCRAPCCGADVKAHHEVCPKFPLTCDGCGKKKIPREKFQDHVKTCGKCRVPCRFHAIGCLETVEGEKQQEHEVQWLREHLAMLLSSVLEAKPLLGDQSHAGSELLQRCESLEKKTATFENIVCVLNREVERVAMTAEACSRQHRLDQDKIEALSSKVQQLERSIGLKDLAMADLEQKVLEMEASTYDGVFIWKISDFARKRQEAVAGRIPAIFSPAFYTSRYGYKMCLRIYLNGDGTGRGTHLSLFFVVMKGPNDALLRWPFNQKVTLMLLDQNNREHVIDAFRPDVTSSSFQRPVNDMNIASGCPLFCPVSKMEAKNSYVRDDAIFIKAIVDLTGL
binds: [10]

B3: TRAF3-CYFP (CYFP at the C-terminus of myc-tagged TRAF3, amino acids 345-568) (domain or fragment, UniProt Q13114-1 345-568)
chain: B1 chain
binds: [10]
